Measurements: the supplement of paper PMC10626197

Tested on: MCF7
Experiment: cell viability relative to DMSO control (raw), single agent; higher = more viable cells
Details: exposure time 72 h
Procedure: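 MCF7 cells, 1000 cells/well in 384-well plates, single-agent wells of drug 2 (drug 1 at 0 µM) within 6x6 combination matrices (1:3 serial dilutions), 72 h at 37 °C. Viability read by CellTiter-Glo luminescence, 3 biological replicates. Normalised viability sets 0% at the highest doxorubicin dose and 100% at the 0,0 µM control per combination.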

Nc1ncn([C@@H]2O[C@H](CO)[C@@H](O)[C@H]2O)c(=O)n1 [5-Azacytidine]
plate partner (at 0 µM): Methotrexate
Details	cell viability [%]
0.123457 µM	101 ± 5.6
0.37037 µM	104 ± 3.1
1.11111 µM	108 ± 13
3.33333 µM	102 ± 3.2
10 µM	78.1 ± 15

CN1CCN(c2nc(C3=C(c4c[nH]c5ccccc45)C(=O)NC3=O)c3ccccc3n2)CC1 [Sotrastaurin]
cell viability [%]
Details	0.0123457 µM	0.037037 µM	0.111111 µM	0.333333 µM	1 µM
plate partner (at 0 µM): Cabazitaxel	81.8 ± 2.9	82.7 ± 4.2	80.2 ± 5	77 ± 2.1	72.8 ± 1.9
plate partner (at 0 µM): Vincristine	95.3 ± 8.9	88.7 ± 6.8	97.1 ± 4.4	94.5 ± 9.7	90.4 ± 21

COc1cc2nc(N3CCN(C(=O)C4CCCO4)CC3)nc(N)c2cc1OC (stereo not given) [Terazosin (hydrochloride dihydrate)]
cell viability [%]
Details	0.0308642 µM	0.0925926 µM	0.277778 µM	0.833333 µM	2.5 µM
plate partner (at 0 µM): Allopurinol	88.4 ± 8.6	93.8 ± 18	86.3 ± 15	91.4 ± 7.4	82.6 ± 14
plate partner (at 0 µM): Cabazitaxel	101 ± 1.8	107 ± 13	106 ± 14	96.5 ± 10	96.8 ± 6.6
plate partner (at 0 µM): Erlotinib	104 ± 9.8	106 ± 16	103 ± 7.1	104 ± 14	98.7 ± 11
plate partner (at 0 µM): ixabepilone	121 ± 11	113 ± 9.6	105 ± 8.8	104 ± 5.8	99.4 ± 11

CO[C@H]1C[C@@H]2CC[C@@H](C)[C@@](O)(O2)C(=O)C(=O)N2CCCC[C@H]2C(=O)O[C@H]([C@H](C)C[C@@H]2CC[C@@H](O)[C@H](OC)C2)CC(=O)[C@H](C)/C=C(\C)[C@@H](O)[C@@H](OC)C(=O)[C@H](C)C[C@H](C)/C=C/C=C/C=C/1C [Rapamycin]
plate partner (at 0 µM): Megestrol
Details	cell viability [%]
0.0864198 µM	80 ± 6.8
0.259259 µM	79.4 ± 4
0.777778 µM	79 ± 6.2
2.33333 µM	79.8 ± 2.6
7 µM	77.8 ± 6.3

Clc1cccc(Cl)c1NC1=NCCN1 [Clonidine]
plate partner (at 0 µM): Mitoxantrone
Details	cell viability [%]
0.0123457 µM	93.2 ± 8.9
0.037037 µM	101 ± 5.6
0.111111 µM	96.2 ± 6.4
0.333333 µM	96 ± 3.7
1 µM	93.6 ± 5.5

C[C@]12C=CC(=O)C=C1CC[C@@H]1[C@@H]2[C@@H](O)C[C@@]2(C)[C@H]1CC[C@]2(O)C(=O)CO [Prednisolone]
cell viability [%]
Details	0.0617284 µM	0.185185 µM	0.555556 µM	1.66667 µM	5 µM
plate partner (at 0 µM): Lapatinib	83.8 ± 6.4	90.2 ± 9.1	87.8 ± 5.8	87.9 ± 5	88.9 ± 3
plate partner (at 0 µM): Pazopanib	80.4 ± 1.9	81.8 ± 2.4	86.79 ± 0.53	94.9 ± 12	102 ± 11

N#CCC1(n2cc(-c3ncnc4[nH]ccc34)cn2)CN(C2CCN(C(=O)c3ccnc(C(F)(F)F)c3F)CC2)C1 [Itacitinib]
cell viability [%]
Details	0.185185 µM	0.555556 µM	1.66667 µM	5 µM	15 µM
plate partner (at 0 µM): Cabazitaxel	90.1 ± 8.5	93.1 ± 5.5	99.5 ± 5.3	90.9 ± 7.6	91.3 ± 24
plate partner (at 0 µM): Lenalidomide	112 ± 5.6	110 ± 6.3	114 ± 5	115 ± 9.2	104 ± 3.3

CCOC(=O)N1CCC(=C2c3ccc(Cl)cc3CCc3cccnc32)CC1 [Loratadine]
plate partner (at 0 µM): Zoledronic
Details	cell viability [%]
0.0617284 µM	107 ± 11
0.185185 µM	108 ± 8.3
0.555556 µM	101 ± 5.3
1.66667 µM	94.1 ± 4.4
5 µM	91.5 ± 1.7

COc1ccc2cccc(CCNC(C)=O)c2c1 [Agomelatine]
plate partner (at 0 µM): Raloxifene
Details	cell viability [%]
0.123457 µM	111 ± 11
0.37037 µM	118 ± 12
1.11111 µM	126 ± 7.8
3.33333 µM	118 ± 3.6
10 µM	112 ± 2.8

NS(=O)(=O)c1cc2c(cc1Cl)NCNS2(=O)=O [Hydrochlorothiazide]
plate partner (at 0 µM): Gefitinib
Details	cell viability [%]
0.0246914 µM	113 ± 2
0.0740741 µM	115 ± 2.6
0.222222 µM	113 ± 1.3
0.666667 µM	106 ± 3.3
2 µM	107 ± 10

C=C1/C(=C\C=C2/CCC[C@]3(C)[C@@H]([C@H](C)CCCC(C)C)CC[C@@H]23)C[C@@H](O)C[C@@H]1O [Alfacalcidol]
cell viability [%]
Details	0.617284 µM	1.85185 µM	5.55556 µM	16.6667 µM	50 µM
plate partner (at 0 µM): Abiraterone	99.4 ± 3.2	89.9 ± 4.5	95.9 ± 10	75.9 ± 6.3	7.34 ± 3.5
plate partner (at 0 µM): Cabazitaxel	79.3 ± 2.4	76.8 ± 4.2	74.1 ± 0.85	62 ± 1.8	38.9 ± 3.7
plate partner (at 0 µM): Crizotinib	85.4 ± 4.9	82.4 ± 13	73.2 ± 4	78.4 ± 5.8	76 ± 11
plate partner (at 0 µM): Erlotinib	89.1 ± 9.7	88.2 ± 13	87.8 ± 18	80.5 ± 16	33 ± 23
plate partner (at 0 µM): Gefitinib	87.7 ± 3.7	86.4 ± 3.6	85.4 ± 3	74.5 ± 1.6	67.6 ± 1.2
plate partner (at 0 µM): Imatinib	74 ± 4.7	69.1 ± 2.7	74.4 ± 10	68.7 ± 2.8	52 ± 4.1
plate partner (at 0 µM): Megestrol	94.2 ± 13	87 ± 2.8	91.4 ± 12	93.3 ± 18	12.3 ± 4
plate partner (at 0 µM): Pazopanib	96.9 ± 19	102 ± 2.6	92.5 ± 12	89.6 ± 6.4	16.9 ± 5.5
plate partner (at 0 µM): Vandetanib	87.1 ± 1.9	86.3 ± 2.4	80.6 ± 4.4	75.8 ± 2.6	65.3 ± 4.1
plate partner (at 0 µM): Vemurafenib	102 ± 18	99.3 ± 12	96.1 ± 14	83.8 ± 17	1.04 ± 0.11
plate partner (at 0 µM): ixabepilone	102 ± 11	94 ± 12	94.9 ± 12	87.3 ± 6	7.94 ± 0.25

CC(C)NCC(O)COc1ccc(CCOCC2CC2)cc1 (stereo not given) [Betaxolol (hydrochloride)]
plate partner (at 0 µM): Topotecan
Details	cell viability [%]
0.308642 µM	101 ± 6.4
0.925926 µM	102 ± 1.8
2.77778 µM	103 ± 4.4
8.33333 µM	103 ± 13
25 µM	102 ± 2.3

Counter-ions that a name gives are not always drawn. ± gives the standard deviation of the averaged measurements. Some well-known active drugs show little effect in this data set, so a weak value is uncertain.
